Screen size: about 53,000 sequences; about 3,700 (7%) were called active.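 The calls were made as follows: active = gene knockdowns whose robust z-score for IL-1 alpha signal is at least 2 or at most -2, so actives lie on both sides; inactive = the rest.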 The list shows a part of the results.

This test is described as follows: Components of the Cytosolic LPS Sensing Pathway: Gene Identification via Genome-wide siRNA Screen.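 Also: robust z of the log signal after scaling to non-targeting control siRNA wells of the plate.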 The conditions noted are these: RAW264.7 macrophages, IL-1a HTRF, actives lie on both sides, screened at 100 nM (by protocol), cells primed 5 h with Pam3CSK4 first. An outline of the steps:
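Read-out: IL-1a HTRF on supernatant, divided by plate negative-control median ×100, log-transformed and converted to robust z-score. Cells were RAW264.7 given 100 nM siRNA, Pam3CSK4-primed 5 hours, then LipidA-transfected 24 hour.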
In general terms: Time-resolved FRET reads energy transfer from a long-lived donor to a nearby acceptor.
For the sequence GGCAACCUGCUGGUAAUCATT against Adrb3, the z-score is active: 3.53.
To GCAAGAAGGGACACAGUUUTT against Plk1 belongs inactive: 0.276; to GCCGAAGUCGACAAUAAUCTT against Slc22a14, inactive: -0.13.
With GGACAAAACUAAACAGCAATT against Smarcal1, the z-score is inactive: -0.662.
Turning to GGGAGGCAGAAAGUCUUCUTT against Olfr1043, the z-score is inactive: -0.192.
As for GGACAAAUUUGGAUAAAUGTT against Abcg8, the z-score is inactive: -0.367.
With GGUGCAUGGGACUUAAUAGTT against Nelfb, the z-score is inactive: 1.56.
Regarding GGACUGCUUUUGCUAUGAATT against Cys1, the z-score is inactive: -1.07.
In the case of GGUGAUCCAAGACUUCCAGTT against Actl6b, the z-score was inactive: 1.16.
For CCCUAUUGAGAAGUGUAUGTT against Il4i1 the value was inactive: 1.13.
To GGCACUCAGGAACUUCCUGTT against Eci3 belongs active: -2.05.
Regarding GGAUUUGGAUUGACCCUUGTT against Grwd1, the z-score was inactive: 1.11.
On to GGUCAGAUAAAACUCUUCATT against Bmi1, for which the z-score was inactive: -0.398.
In the case of CCACAUGACCUACUUUUCCTT against Togaram2, the z-score is inactive: -0.337.
On to GCCUGUGCUUAAUUUAAGGTT against Yme1l1, for which the z-score was inactive: -0.346.
GGAUCAAUGCAUGGAAUUCTT against Ugdh: the z-score was inactive: 1.57.
Take GGAUUUUGCUCAGACGACATT against Taf1a: the z-score was inactive: 0.291.
GGUAACCACAGUAGUGGCATT against Gsk3b: the z-score was inactive: -1.03.
As for GGUCAAGUUCAAGUGAGGATT against Ptgr2, the z-score is inactive: -0.582.
Turning to GGAACUCACUUACUUAUGUTT against Prrx2, the z-score was inactive: 0.669.
On to GGCUUUAAGGGACAACUGATT against Yipf3, for which the z-score is inactive: -0.576.
For AUCUCAGCCUUGGUACGUGTT against Nkain1 the value was inactive: -1.86; for GGUGACAGUACAGAAAAGUTT against Rnf135, inactive: 0.118; for GUGUAUGUUCACCAAGCUCTT against Klk1b16, inactive: 1.24.
For GGGCCAGCUUUCAAUAUUGTT against Man2a1 the value was inactive: 0.723; for GGUACUUUGAUGACGAGUUTT against Akt2, inactive: -1.91.
GGAUACUUGAUGAACUUUGTT against Ano2: the z-score was inactive: -0.845.
To GCCAACCUGUACGAAAAAGTT against Zfp868 belongs inactive: -0.945; to GCCUGAUAGUGCAGAAACATT against Rabl2, inactive: -0.233; to GCCCAAAGUGAUUCACUAGTT against Acvrl1, inactive: -1.54.
For GGUGUUCAGAUGGUUCCCATT against Exosc1 the value was inactive: -1.19; for GGUGCUCGAAAACUGGUUCTT against Tbrg1, inactive: -0.368.
Turning to GGAUGUUCUGAGGACCAACTT against Cct6a, the z-score was inactive: 0.25.
As for GGCCCAUCCCACAAUGAUATT against Atg9b, the z-score was inactive: -0.998.
As to CCAUACACAUGUAAUUCUCTT against Zmat3, the z-score is inactive: -0.159.
On to GGAUACUGGCAUGAAAUUGTT against Slc22a2, for which the z-score was inactive: -0.888.
In the case of GCGAAUGCUUAAAAUAGCATT against Ift81, the z-score is inactive: 0.333.
To GGGAUGCUGUAGAUAUUAATT against Fcgr2b belongs inactive: -0.622; to GCUACUCCAUUUACAUCUATT against H2bc1, inactive: -0.122.
In the case of CGAUGGUCGAAGGAUUGUCTT against Tnfsf4, the z-score was inactive: -0.837.
Turning to CCAUUUCAGGCAUGAAGAATT against Tsga10, the z-score was inactive: -1.13.
Consider GGUUGAACCCACUCUGCAATT against Olfr1113, for which the z-score was inactive: -0.752.
Consider CCAACACUGAGCUCAGAAGTT against Igfbp2, for which the z-score was inactive: -1.34.
On to UGGUUUCUCAAGCACUAGUTT against Kpna7, for which the z-score is inactive: -1.85.
To GCUGUAUGAAGUUAGAUUUTT against Car8 belongs inactive: 0.019.
Take GGUUUGUUUUACAAAAUGCTT against Zdhhc5: the z-score is inactive: 0.37.
To GGCACAAUCACAUCACAGCTT against Lrrtm2 belongs inactive: 0.622; to GGAUGCAGUUCAAAAGAGATT against Acox2, inactive: -0.573.
Consider CGAGAUCAGAAAACUGACUTT against Cpa4, for which the z-score is inactive: -0.825.
For UGACUGGGCUAAUAGGAGATT against Olfr1469, the z-score was inactive: 0.607.
Regarding GCUCUUCAUAACUCUUGCUTT against Olfr1392, the z-score is inactive: -0.288.
In the case of GCUUGUGCGAGUGUUGGAUTT against Has1, the z-score was active: 2.21.
For GCACCCGGCACUAGAAAAATT against Shoc2, the z-score is inactive: 1.02.
To GGUUUUUCCAGCUGUUUUCTT against Olfr618 belongs inactive: -0.232; to GGUCAAGGAAUUAGUGAUUTT against Tctex1d1, inactive: 0.398; to GCUCCUCGAAUCCCUGUAGTT against Per3, inactive: -0.622.
To CGAGGUCAAUUUUAGAGAGTT against Eloc belongs inactive: -0.722; to GGAUCACAGUGGUUCAGAATT against Snai2, inactive: 1.31.
As for CCAGUCUCCGCCUCAGUAATT against Tex13c3, the z-score was inactive: 0.309.
Take GGAAAAAUCAUGGAGAAAATT against Dhodh: the z-score was inactive: -0.575.
In the case of GGUCUUAAGGAGAAAUGAATT against Cbln2, the z-score was inactive: -0.48.
For the sequence UCCAGCUGGCGAAGUGGGCTT against Hs3st6, the z-score is inactive: 1.36.
As to GGUCAUCACUUAUUACCCATT against Ptges2, the z-score is inactive: -1.72.
Turning to GGACUACAGUCAUUAUUCATT against Sycp2, the z-score was active: 3.25.
Turning to GCAGACUGAAUAUUGAAAGTT against Cry1, the z-score was inactive: 0.12.
For CCAUCCCAUAUAACGAUCUTT against Oat the value was inactive: 0.00726; for CCCAUAGAUUUUUUGACAGTT against Hbb-y, inactive: -0.716; for GGACUCCAGAGAAAGAGGCTT against Tcf15, inactive: -0.854.

The record behind these values is PubChem BioAssay AID1508600 (Functional Genomics Laboratory (NCATS/FGL), 2020).
